# Measured values as given in article PMC6044554.
# No constants are given. Whether binding was seen depends on the method and setting. In cells and extracts the contact can be indirect. Where a sequence is shown, tags or fusion partners need not be part of it.
# Molecular target: T1, Lmo2027-GST fusion protein (residues 31-367) (Listeria monocytogenes) (UniProt Q8Y5N0)
# T1 sequence: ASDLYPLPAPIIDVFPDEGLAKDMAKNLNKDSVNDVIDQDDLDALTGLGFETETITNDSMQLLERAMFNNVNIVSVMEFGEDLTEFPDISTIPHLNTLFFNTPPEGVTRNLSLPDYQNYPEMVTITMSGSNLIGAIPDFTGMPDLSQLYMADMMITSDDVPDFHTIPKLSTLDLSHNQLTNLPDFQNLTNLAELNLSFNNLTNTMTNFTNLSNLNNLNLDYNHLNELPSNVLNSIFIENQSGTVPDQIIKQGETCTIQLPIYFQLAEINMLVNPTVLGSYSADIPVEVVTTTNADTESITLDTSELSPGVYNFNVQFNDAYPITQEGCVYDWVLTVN
# Assay: pull-down; GST or GST fusion bait on Glutathione Sepharose 4B incubated overnight with MDCK cell lysate; beads boiled in SDS sample buffer; Western blot with anti-afadin antibody; only the target purified
substance,measurement,value
afadin (MDCK cells) (canine (endogenous in MDCK)),binding,no binding
